PMC4223017, “Structural Model of the hUbA1-UbcH10 Quaternary Complex: In Silico and Experimental Analysis of the Protein-Protein Interactions between E1, E2 and Ubiquitin” (PLoS ONE, 2014)
No constants are given. Whether binding was seen depends on the method and setting.

Target: T1, GST-UbcH10 (UniProt O00762 1-179)
T1 construct: UbcH10, a Ubiquitin Conjugation Enzyme (E2); PCR product cloned into pGEX-4T1; The GST tag is cleavable but the fusion GST-UbcH10 was coated on the wells; PDB 1I7K (used only for modelling) lacks the first 30 residues and has Ser114; nothing says that the ELISA construct has these limits; also called E2; recombinant GST-UbcH10; source: E. coli BL21 (DE3) RP, purified (GST-trap column, dialysed …)
T1 sequence (looked up): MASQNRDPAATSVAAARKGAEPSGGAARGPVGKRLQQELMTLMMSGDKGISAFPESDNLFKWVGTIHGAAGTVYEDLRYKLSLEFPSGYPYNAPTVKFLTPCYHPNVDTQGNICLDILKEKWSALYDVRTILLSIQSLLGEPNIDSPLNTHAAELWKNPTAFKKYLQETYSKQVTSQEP
Assay: ELISA; wells coated overnight at 4°C with 100 µg/ml GST-UbcH10 in PBS, 1 mM TCEP; biotinylated peptides at 2.2, 11, 22, 44, 108 µM in PBS (1 mM TCEP for U1 and ScrU1); detection with streptavidin-HRP, reading at 490 nm; apparent KD; both purified

- binding: no binding (tested: 108 µM)
B1: S2 peptide (hUbA1 SCCH region, helix H19, 649-662) (peptide)
peptide: RDEFEGLFKQPAEN
modifications: N-terminus biotinylated (N-(+)-biotinyl-6-aminocaproic acid); C-terminal amide
